# Experimental data from publication PMC12881522.
# Results are given in words; binding and its absence hold for the method and conditions named. In cells and extracts the contact can be indirect. Binding calls can cover weak binding; strength is not graded here. Sequences can lack the tags named with a protein.
# Biological target: T1, spGFP1-10-ZIG-8 (Zwei IG domain protein-8), knock-in allele spgfp1-10::zig-8 (C. elegans) (UniProt G5ED00)
# T1 sequence: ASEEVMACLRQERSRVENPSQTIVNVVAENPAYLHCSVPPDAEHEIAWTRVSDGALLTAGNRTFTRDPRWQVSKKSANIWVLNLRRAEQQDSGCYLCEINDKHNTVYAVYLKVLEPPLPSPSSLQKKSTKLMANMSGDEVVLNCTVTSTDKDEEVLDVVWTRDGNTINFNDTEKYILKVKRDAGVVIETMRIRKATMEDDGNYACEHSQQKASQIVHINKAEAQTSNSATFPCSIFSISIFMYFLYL
# Test: split reporter; GRASP (GFP Reconstruction Across Synaptic Partners) in a spgfp11::rig-5 and spgfp1-10::zig-8 double knock-in C. elegans strain; live spinning disk imaging of the ventral nerve cord; auxin treatment to degrade ACR-16 in muscle
substance,measurement,value
"spGFP11-RIG-5 (neuRonal IG CAM-5), knock-in allele spgfp11::rig-5 (C. elegans)",binding,binds
